Among all 390,000 compounds or so, about 910 (0.23%) were called active. Inconclusive results, whose numbers are uncertain, are shown with a selection of clear calls. Calls come from the whole dose curve; as a rule, active = well fitted inhibition curve with a large enough effect; inconclusive = small, poorly fitted or top-dose-only effect; inactive = no such curve, though single readings can be large or run the other way. Potencies beside an inconclusive call are fits to weak or partial responses and may not hold up.
target: Ubiquitin carboxyl-terminal hydrolase 1 (Homo sapiens) (UniProt O94782); test: Inhibitors of USP1/UAF1: Primary Screen; conditions: recombinant USP1/UAF1, Ub-Rhodamine cleavage fluorescence; series mostly up to 57.1 µM; note: nearly all actives have a fitted effect of over 60% in size
Outline: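 USP1/UAF1 complex (1 nM) preincubated 15 min at room temperature with compound, then Ub-Rho substrate (150 nM final) added. Kinetic fluorescence at 480/540 nm over 6 reads at 60 s intervals; 50 mM HEPES pH 7.8, 0.5 mM EDTA, 0.1 mg/ml BSA, 1 mM TCEP, 0.01% Tween-20.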
Potency is the fitted concentration of half-maximal effect.

By UniProt entry, the sequences of proteins in these tests, tags left out. Where a name states a change or a piece, a line headed by the entry shows the natural chain unless it says otherwise.
UniProt O94782: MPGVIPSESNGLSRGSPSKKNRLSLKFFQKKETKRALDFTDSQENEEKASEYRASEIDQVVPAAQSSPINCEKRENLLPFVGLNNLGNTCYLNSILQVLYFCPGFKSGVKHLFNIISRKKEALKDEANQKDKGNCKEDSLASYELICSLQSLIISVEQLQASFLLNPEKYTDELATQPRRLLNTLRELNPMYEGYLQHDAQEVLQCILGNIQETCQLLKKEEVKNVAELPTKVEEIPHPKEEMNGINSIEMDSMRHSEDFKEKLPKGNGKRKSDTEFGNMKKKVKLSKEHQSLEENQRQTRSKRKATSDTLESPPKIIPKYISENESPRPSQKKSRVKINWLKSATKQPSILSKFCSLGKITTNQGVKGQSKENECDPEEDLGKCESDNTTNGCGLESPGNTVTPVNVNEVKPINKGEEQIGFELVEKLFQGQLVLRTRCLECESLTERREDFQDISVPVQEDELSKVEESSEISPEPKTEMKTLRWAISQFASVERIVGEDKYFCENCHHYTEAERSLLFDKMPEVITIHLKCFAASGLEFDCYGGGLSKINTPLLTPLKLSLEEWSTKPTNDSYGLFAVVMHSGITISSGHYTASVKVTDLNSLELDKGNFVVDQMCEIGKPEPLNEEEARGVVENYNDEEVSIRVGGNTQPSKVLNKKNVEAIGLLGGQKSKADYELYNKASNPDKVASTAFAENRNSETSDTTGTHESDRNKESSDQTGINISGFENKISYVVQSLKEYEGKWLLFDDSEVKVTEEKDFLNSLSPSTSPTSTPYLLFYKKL

Potency, inactive:
CCOc1ccccc1/C=N/NC(=O)c1cccc(Cl)c1
CCNC(=S)N=Nc1c(O)[nH]c2ccc([N+](=O)[O-])cc12
Cc1cc2oc(=O)cc(-c3cc4ccccc4o3)c2cc1O
Clc1ccccc1-c1csc(Nc2cccnc2)n1
COc1ccc(N2CCN(C(=O)NCc3noc4ccccc34)CC2)cc1
CC(=O)Nc1cccc(NC(=O)Nc2ccc(C(C)=O)cc2)c1
O=C(Nc1c(C(=O)Nc2cccc(F)c2)oc2ccccc12)c1cc2ccccc2o1
CC(=O)Nc1cccc(Oc2nc(C)cc(C)c2C#N)c1
Clc1cccc(-c2nc(NCc3cccnc3)c3ccccc3n2)c1
CCOC(=O)Nc1c(O)ccc2oc(C)c(-c3ccccc3)c12
Cc1ccc2nc(N3C(=O)C(O)=C(C(=O)c4ccc(C)o4)C3c3ccco3)sc2c1 (stereo not given)
O=C(CSc1ncc(CO)n1Cc1ccccc1)Nc1ccc(C(F)(F)F)cc1
CCn1nc(C)c(CCN(C)C(=O)Nc2cc(Cl)ccc2C)c1C
CCN(CC)c1ccc(/C=N/NC(=O)c2cccc(S(=O)(=O)Nc3ccccc3OC)c2)cc1
Cc1cc(O)c(C=Nc2ccc(Cl)cn2)c(=O)o1
Cc1ccc(NC(=O)c2cc3ccccc3oc2=N)cc1
Cc1ccc(-c2cc(C(F)F)n3ncc(C(=O)N4CCCc5ccccc54)c3n2)cc1
Cc1ccc(N(C(=O)CNC(=O)c2ccco2)C(C(=O)NC2CCCC2)c2cccnc2)cc1C (stereo not given)
N#C/C(=C1/CCCCCN1)c1nc2ccccc2[nH]1
COc1cc2c(cc1NC(=O)/C=C/c1cc(OC)c(OC)c(OC)c1)oc1ccccc12

Among those listed so far, these contain an NH in an aromatic ring:
Potency, inactive:
CCNC(=S)N=Nc1c(O)[nH]c2ccc([N+](=O)[O-])cc12
N#C/C(=C1/CCCCCN1)c1nc2ccccc2[nH]1

By substructure: the compounds so far containing a cyano group
Potency, inactive:
CC(=O)Nc1cccc(Oc2nc(C)cc(C)c2C#N)c1
N#C/C(=C1/CCCCCN1)c1nc2ccccc2[nH]1

Following part.

Potency, inconclusive:
COc1ccc(S(=O)(=O)Nc2cccc3c2O[C@H](CN(C)Cc2ccncc2)[C@@H](C)CN([C@H](C)CO)C3=O)cc1 50.1 µM [inhibitor, partial curve, poor fit]
Cn1c(=O)c2c(nc(CN3CCc4ccccc4C3)n2Cc2ccccc2F)n(C)c1=O 31.6 µM [inhibitor, single point]
Cc1c(C(=O)O)sc2nc(CSc3ncc(C(F)(F)F)cc3Cl)[nH]c(=O)c12 0.447 µM [inhibitor, partial curve, poor fit]
CCC(=O)Nc1ccc(Cl)c(NC(=O)c2cccnc2)c1 2.82 µM [inhibitor, partial curve]
O=C(/C=C/c1ccccc1)OCCCCN=C1NS(=O)(=O)c2ccccc21 44.7 µM [inhibitor, partial curve, poor fit]
O=C(c1ccccc1)c1ccc(Oc2ccc([N+](=O)[O-])cc2[N+](=O)[O-])cc1 3.55 µM [inhibitor, partial curve]
Cc1ccc(-c2nn(CC(=O)NC3CCCCC3)c3c2cnc2ccccc23)cc1 79.4 µM [inhibitor, partial curve, poor fit]
CCCCN(C)C(=O)c1cc2c(Cl)nc3ccccc3c2s1 0.282 µM [inhibitor, full curve, poor fit]
CCOc1ccccc1NC(=O)CN1c2cccc3cccc(c23)S1(=O)=O 50.1 µM [inhibitor, partial curve, poor fit]
CCOC(=O)C(C(C)=O)c1c(Br)c(O)c(O)c2c(C(=O)c3ccc(C)cc3)coc12 (stereo not given) 15.8 µM [inhibitor, partial curve]
CCC(C)[C@H]1CNC(=S)N1CCC12CC3CC(CC(C3)C1)C2 (stereo not given in full) 15.8 µM [inhibitor, partial curve]
COc1cccc(NC(=O)C2CCCN2S(=O)(=O)c2ccc3c(c2)C(C)(C)C(=O)N3C)c1 (stereo not given) 50.1 µM [inhibitor, partial curve, poor fit]
CCOC(=O)C1=C(CC)OC(N)=C(C#N)C1c1ccc(F)cc1F (stereo not given) 12.6 µM [inhibitor, partial curve]
C=CC[C@@H](CC(=O)NCCO)C(=O)N[C@H](COC(=O)[C@H](CC=C)CC(=O)OC(C)(C)C)Cc1c[nH]c2ccccc12 79.4 µM [inhibitor, partial curve, poor fit]
COC(=O)C1=C(C)NC(=O)CC1c1cccc(Cl)c1Cl (stereo not given) 5.01 µM [inhibitor, partial curve]
COc1cc2[nH]c(=O)n(CCCCCC(=O)NCCc3ccccc3)c(=O)c2cc1OC 0.282 µM [inhibitor, full curve, poor fit]
CC1Cn2c(CCc3ccccc3)nnc2S1 (stereo not given) 6.31 µM [inhibitor, single point]
CCOC(=O)c1sc(Nc2ccc(Br)cc2)nc1C 35.5 µM [inhibitor, partial curve]
CN(Cc1c(F)cccc1Cl)C(=O)c1cnc2ccccc2n1 7.08 µM [inhibitor, partial curve, poor fit]
O=C1c2cccc3c([N+](=O)[O-])ccc(c23)C(=O)N1c1ccc(Cl)cn1 28.2 µM [inhibitor, single point]
O=[N+]([O-])c1ccc(NC(c2ccccc2)c2ccc3cccnc3c2O)cc1 (stereo not given) 50.1 µM [inhibitor, partial curve, poor fit]
O=C(Cn1c(NCCO)nc2ccccc21)N1CCN(Cc2ccccc2)CC1 0.631 µM [inhibitor, full curve, poor fit]
O=C(CC(=O)N1CCOCC1)N1CCOCC1 50.1 µM [inhibitor, partial curve, poor fit]
COc1cccc(C2c3c(-c4ccccc4O)n[nH]c3C(=O)N2CCc2ccc(OC)c(OC)c2)c1 (stereo not given) 4.47 µM [inhibitor, partial curve, poor fit]
CCN(CC)CCOC(=O)c1ccc(N/C=C(/C#N)c2nc(-c3ccc4c(c3)OCO4)cs2)cc1 12.6 µM [inhibitor, partial curve]
CCOC(=O)c1ccc(NC(=O)c2nc[nH]c2C(=O)N2CCC(C)CC2)cc1 0.282 µM [inhibitor, full curve]
O=C(COc1ccccc1Cl)Nc1ccc(S(=O)(=O)N2CCOCC2)cc1 5.01 µM [inhibitor, partial curve]
CC(NCc1ccccc1Cl)C(=O)Nc1ccc(C#N)cc1 (stereo not given) 10 µM [inhibitor, partial curve]
O=C(c1ccc(OCCN2CCCCC2)cc1)c1c(-c2ccc(O)cc2)sc2cc(O)ccc12 0.0631 µM [inhibitor, full curve, poor fit]
C=CCC[C@@H](Cc1ccc(F)cc1)C(=O)OC[C@H](Cc1c[nH]c2ccccc12)NC(=O)[C@@H](CC=C)CC(=O)N(CCO)Cc1ccccc1 50.1 µM [inhibitor, partial curve, poor fit]
CCN1C(=NCc2cc(OC)c(OC)c(OC)c2)N[C@@H](c2cccc(C(F)(F)F)c2)C(C(=O)OC)=C1C 89.1 µM [inhibitor, partial curve, poor fit]
CCNC(=O)Cc1ccc(NC(=O)N2CCCCc3ccccc32)cc1 0.251 µM [inhibitor, full curve, poor fit]
CN(N)c1nc(-c2ccccc2)cc(-c2ccccc2)n1 28.2 µM [inhibitor, partial curve]
O=C1OCCN1C(=O)[C@H]1[C@H](c2ccccc2)C(c2ccccc2)=NN1c1ccccc1 44.7 µM [inhibitor, partial curve, poor fit]
COc1ccccc1-c1ccc(/C=C2\C=CC(=O)O2)o1 31.6 µM [inhibitor, partial curve, poor fit]
CC(CC(=O)NCc1ccco1)S(=O)(=O)c1ccc2c(c1)CCN2C(=O)C1CC1 (stereo not given) 70.8 µM [inhibitor, partial curve, poor fit]
CN(C)C(CNC(C(=O)Nc1ccc(F)cc1)c1ccccc1)c1ccccc1 (stereo not given) 3.98 µM [inhibitor, partial curve]
CCc1ccc(-c2ccc(SCC(=O)NC3CCCC3)nn2)cc1 0.251 µM [inhibitor, full curve, poor fit]
Cc1cc(OCCCn2ccnc2)ccc1[N+](=O)[O-] 7.94 µM [inhibitor, full curve, poor fit]
COc1ccc(-c2noc(-c3nnn(-c4cc(C)ccc4C)c3N)n2)cc1 44.7 µM [inhibitor, partial curve, poor fit]
Cc1nc(-c2ccc(NC(=O)CC(C)C)cc2)cs1 17.8 µM [inhibitor, partial curve]
CCc1cc2ccc(C)cc2nc1SCC(=O)c1ccc(NC(C)=O)cc1 0.282 µM [inhibitor, full curve, poor fit]
CC1(C)CC(=O)C=C(NCC(=O)O)C1 5.62 µM [inhibitor, partial curve]
COC1CC(=O)C2OC(c3ccccc3)OCC2O1 (stereo not given) 7.08 µM [inhibitor, partial curve, poor fit]
COc1cccc(-c2sc3ccc(OC)cc3c2C#CC(C)(C)O)c1 31.6 µM [inhibitor, partial curve]
